Experimental data as given in paper PMC12447900.

The chains behind the UniProt entries cited, without tags or fusion partners. Residues count along the entry.
UniProt P08670: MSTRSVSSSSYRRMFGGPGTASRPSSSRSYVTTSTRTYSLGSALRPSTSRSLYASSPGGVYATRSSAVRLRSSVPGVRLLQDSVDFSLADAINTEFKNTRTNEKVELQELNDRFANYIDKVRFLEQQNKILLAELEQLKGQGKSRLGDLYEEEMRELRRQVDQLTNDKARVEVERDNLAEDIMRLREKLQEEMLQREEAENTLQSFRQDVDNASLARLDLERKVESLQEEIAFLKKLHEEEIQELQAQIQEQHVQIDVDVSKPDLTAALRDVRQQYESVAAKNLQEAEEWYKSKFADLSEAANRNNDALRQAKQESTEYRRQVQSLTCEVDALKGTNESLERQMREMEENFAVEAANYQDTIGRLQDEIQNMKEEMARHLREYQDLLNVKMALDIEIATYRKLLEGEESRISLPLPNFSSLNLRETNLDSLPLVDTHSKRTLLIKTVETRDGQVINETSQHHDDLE
UniProt Q6UVK1, residues 30-2322: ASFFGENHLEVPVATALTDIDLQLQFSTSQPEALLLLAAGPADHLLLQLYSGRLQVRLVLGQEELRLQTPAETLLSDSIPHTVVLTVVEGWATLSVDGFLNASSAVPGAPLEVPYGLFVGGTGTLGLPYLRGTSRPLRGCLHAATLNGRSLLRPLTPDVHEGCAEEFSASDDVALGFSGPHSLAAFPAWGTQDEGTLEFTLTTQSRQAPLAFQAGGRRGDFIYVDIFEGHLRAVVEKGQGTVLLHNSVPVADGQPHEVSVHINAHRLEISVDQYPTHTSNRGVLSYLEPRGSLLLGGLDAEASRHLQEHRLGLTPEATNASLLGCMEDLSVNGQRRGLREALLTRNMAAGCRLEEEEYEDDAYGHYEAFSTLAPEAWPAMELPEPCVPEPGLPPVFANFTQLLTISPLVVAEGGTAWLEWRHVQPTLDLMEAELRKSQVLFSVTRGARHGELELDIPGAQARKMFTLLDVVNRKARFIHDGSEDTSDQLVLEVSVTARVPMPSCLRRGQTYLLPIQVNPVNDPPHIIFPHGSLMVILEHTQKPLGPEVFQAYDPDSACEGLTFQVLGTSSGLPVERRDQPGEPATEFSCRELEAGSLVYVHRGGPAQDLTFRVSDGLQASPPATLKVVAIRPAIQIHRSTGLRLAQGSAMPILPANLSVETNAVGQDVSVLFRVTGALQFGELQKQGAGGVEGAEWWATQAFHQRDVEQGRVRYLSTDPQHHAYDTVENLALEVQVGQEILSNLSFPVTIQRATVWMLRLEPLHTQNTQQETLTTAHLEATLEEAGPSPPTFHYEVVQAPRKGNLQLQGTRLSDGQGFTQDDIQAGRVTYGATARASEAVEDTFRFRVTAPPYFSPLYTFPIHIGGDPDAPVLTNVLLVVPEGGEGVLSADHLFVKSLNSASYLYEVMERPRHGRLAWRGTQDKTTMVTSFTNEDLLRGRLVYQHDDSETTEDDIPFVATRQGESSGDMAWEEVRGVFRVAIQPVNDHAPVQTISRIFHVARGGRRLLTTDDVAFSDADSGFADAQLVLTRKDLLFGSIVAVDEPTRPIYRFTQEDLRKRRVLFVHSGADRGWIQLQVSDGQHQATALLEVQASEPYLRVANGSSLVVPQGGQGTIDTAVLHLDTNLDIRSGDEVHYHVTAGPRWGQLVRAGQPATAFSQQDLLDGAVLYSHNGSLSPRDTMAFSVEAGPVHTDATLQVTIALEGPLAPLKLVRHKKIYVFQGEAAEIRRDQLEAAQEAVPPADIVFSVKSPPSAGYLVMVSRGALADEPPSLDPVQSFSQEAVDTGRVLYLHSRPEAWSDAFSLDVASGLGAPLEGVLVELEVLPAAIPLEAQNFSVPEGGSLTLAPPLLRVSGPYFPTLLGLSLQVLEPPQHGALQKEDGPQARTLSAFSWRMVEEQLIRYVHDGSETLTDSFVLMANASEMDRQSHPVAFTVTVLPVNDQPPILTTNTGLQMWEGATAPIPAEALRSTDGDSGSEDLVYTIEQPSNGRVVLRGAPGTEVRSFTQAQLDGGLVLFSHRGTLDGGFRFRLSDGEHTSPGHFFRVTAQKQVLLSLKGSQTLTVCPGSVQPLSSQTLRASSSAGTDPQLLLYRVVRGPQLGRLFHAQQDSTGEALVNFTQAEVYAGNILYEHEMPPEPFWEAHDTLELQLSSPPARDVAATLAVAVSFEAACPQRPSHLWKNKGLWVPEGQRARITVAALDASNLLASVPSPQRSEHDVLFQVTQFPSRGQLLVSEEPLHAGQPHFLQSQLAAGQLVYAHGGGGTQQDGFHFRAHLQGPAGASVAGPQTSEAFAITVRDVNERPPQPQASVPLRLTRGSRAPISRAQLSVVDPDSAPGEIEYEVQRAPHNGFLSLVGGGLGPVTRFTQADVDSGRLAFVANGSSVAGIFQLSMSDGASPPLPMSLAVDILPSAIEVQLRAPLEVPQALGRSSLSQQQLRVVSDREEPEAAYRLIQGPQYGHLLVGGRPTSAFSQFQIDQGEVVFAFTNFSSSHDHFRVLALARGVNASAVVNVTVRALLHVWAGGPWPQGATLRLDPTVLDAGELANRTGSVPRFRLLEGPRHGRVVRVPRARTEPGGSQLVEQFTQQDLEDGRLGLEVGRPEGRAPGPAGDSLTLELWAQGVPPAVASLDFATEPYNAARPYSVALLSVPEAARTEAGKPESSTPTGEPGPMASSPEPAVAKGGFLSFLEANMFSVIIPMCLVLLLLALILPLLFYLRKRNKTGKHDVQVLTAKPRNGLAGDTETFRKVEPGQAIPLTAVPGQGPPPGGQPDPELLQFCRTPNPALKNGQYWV
UniProt P29317, residues 24-976: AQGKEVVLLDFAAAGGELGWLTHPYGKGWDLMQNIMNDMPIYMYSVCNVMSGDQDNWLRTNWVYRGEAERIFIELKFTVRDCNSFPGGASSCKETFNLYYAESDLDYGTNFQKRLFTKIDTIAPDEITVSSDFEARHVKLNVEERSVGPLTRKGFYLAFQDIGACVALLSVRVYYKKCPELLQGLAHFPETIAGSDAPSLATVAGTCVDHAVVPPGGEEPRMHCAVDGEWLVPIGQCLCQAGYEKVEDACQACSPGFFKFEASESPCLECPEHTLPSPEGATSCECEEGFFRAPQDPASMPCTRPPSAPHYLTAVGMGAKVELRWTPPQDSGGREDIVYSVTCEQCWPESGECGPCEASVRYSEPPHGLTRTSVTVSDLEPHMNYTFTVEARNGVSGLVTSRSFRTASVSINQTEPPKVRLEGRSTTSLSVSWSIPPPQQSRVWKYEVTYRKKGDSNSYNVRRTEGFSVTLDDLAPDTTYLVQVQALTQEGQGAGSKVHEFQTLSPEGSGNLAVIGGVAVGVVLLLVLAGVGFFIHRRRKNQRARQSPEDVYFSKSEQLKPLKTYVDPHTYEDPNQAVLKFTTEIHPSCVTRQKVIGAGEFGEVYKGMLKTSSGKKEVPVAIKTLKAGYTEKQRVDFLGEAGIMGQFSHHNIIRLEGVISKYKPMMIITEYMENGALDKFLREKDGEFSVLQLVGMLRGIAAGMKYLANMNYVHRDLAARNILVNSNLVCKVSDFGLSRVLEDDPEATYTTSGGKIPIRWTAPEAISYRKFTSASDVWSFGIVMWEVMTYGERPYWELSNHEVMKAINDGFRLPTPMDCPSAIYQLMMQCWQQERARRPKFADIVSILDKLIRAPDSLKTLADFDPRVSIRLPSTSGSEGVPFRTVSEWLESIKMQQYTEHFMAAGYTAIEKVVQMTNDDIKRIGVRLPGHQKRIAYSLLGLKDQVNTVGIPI
UniProt P29323, residues 19-1055: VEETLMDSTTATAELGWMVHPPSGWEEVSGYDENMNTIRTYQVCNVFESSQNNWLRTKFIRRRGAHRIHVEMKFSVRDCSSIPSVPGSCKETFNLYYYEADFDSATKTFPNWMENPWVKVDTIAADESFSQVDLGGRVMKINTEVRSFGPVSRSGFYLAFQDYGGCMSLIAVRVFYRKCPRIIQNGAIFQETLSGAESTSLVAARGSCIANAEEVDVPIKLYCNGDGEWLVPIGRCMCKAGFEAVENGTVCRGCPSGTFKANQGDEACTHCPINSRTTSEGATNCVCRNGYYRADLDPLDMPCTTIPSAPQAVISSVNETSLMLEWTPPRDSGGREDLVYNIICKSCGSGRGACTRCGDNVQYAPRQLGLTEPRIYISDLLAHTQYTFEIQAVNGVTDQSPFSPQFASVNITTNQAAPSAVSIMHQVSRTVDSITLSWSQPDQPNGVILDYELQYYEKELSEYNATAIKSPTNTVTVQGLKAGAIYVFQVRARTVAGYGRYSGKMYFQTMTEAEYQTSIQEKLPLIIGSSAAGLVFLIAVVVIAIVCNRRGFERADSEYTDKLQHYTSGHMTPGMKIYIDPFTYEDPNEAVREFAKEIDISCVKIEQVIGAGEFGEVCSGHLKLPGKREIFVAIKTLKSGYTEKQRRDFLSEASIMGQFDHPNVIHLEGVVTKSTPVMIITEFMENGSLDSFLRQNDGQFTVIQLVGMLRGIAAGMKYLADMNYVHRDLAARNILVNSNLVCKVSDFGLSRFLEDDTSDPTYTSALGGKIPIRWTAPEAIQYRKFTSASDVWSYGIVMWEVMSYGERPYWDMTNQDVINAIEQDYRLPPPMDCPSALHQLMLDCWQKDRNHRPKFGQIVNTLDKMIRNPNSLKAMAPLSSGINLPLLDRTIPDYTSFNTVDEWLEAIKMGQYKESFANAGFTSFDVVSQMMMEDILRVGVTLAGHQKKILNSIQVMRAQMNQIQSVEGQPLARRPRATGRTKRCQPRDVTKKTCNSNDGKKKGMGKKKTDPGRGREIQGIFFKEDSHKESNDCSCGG
UniProt Q8TF66, residues 22-581: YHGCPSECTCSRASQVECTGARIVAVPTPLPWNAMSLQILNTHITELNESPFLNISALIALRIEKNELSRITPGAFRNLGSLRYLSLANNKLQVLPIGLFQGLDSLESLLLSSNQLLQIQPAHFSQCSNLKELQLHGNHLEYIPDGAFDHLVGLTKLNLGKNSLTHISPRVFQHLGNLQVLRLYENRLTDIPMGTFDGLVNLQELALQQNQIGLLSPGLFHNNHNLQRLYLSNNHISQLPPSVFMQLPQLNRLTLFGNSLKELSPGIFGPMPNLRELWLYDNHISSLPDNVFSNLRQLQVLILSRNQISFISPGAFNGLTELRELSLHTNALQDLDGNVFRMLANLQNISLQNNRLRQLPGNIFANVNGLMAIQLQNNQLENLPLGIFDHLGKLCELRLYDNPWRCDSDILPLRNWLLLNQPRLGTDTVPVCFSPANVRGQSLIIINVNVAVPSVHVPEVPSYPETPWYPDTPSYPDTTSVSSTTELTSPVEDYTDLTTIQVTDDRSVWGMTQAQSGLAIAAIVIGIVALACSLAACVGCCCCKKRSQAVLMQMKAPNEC

B1: DKK1, endogenous (ligand, UniProt O94907 32-266)
chain: TLNSVLNSNAIKNLPPPLGGAAGHPGSAVSAAPGILYPGGNKYQTIDNYQPYPCAEDEECGTDEYCASPTRGGDAGVQICLACRKRRKRCMRHAMCCPGNYCKNGICVSSDQNHFRGEIEETITESFGNDHSTLDGYSRRTTLSSKMYHTKGQEGSVCLRSSDCASGLCCARHFWSKICKPVLKEGQVCTKHRRKGSHGLEIFQRCYCGEGLSCRIQKDHHQASNSSRLHTCQRH

Key:
[1] = target: cell-surface Vimentin with a genomically inserted C-terminal HA-tag, on HGF and HUVEC cells (human (endogenous in HGF and HUVEC)) (UniProt P08670); test: proximity labelling; Experiment #2: live C-terminally HA-tag edited HGF and HUVEC cells on ice, HA-tag rabbit mAb and HRP-conjugated secondary antibody, biotinyl tyramide and H2O2 for 3 min at RT; streptavidin pull-down and LC-MS/MS; control: wildtype cells
[2] = target: cell-surface Vimentin (csVim), wildtype, on HGF cells (human (endogenous in HGF)) (UniProt P08670); test: proximity labelling; Experiment #1: live wildtype HGF cells on ice, Vimentin rabbit pAb and HRP-conjugated secondary antibody, biotinyl tyramide and H2O2 for 3 min at RT; streptavidin pull-down and LC-MS/MS; control: secondary antibody only
[3] = target: cell-surface Vimentin with a genomically inserted C-terminal HA-tag, on HGF and HUVEC cells (human (endogenous in HGF and HUVEC)) (UniProt P08670); test: proximity labelling; Experiment #2: live C-terminally HA-tag edited HGF and HUVEC cells on ice, HA-tag rabbit mAb and HRP-conjugated secondary antibody, biotinyl tyramide and H2O2 for 3 min at RT; streptavidin pull-down and LC-MS/MS; control: wildtype cells; remark: listed apart in the source

Molecule | binding [1] | binding [2] | binding [3]
CSPG4, endogenous (from UniProt Q6UVK1 30-2322) | binds |  | 
EPHA2, endogenous (from UniProt P29317 24-976) (receptor) | binds |  | 
EPHB2, endogenous (from UniProt P29323 19-1055) (receptor) | binds |  | 
LRRC15, endogenous (from UniProt Q8TF66 22-581) (receptor) | binds |  | 
B1 |  | binds | binds

Where two headings read alike, the source gives them in different places. Results are given in words; binding and its absence hold for the method and conditions named. Binding seen in cells or lysates may run through a third protein. These calls come from enrichment with a bait or labelling near it, and not all partners need be listed.
